# Data reported in PubChem BioAssay AID2283302 (EPA ToxCast).
# Sequences of proteins named here, by UniProt entry; tags and fusion partners are left off. A change or cut given only in a name is not applied to a line headed by its entry.
# UniProt Q4V8E0: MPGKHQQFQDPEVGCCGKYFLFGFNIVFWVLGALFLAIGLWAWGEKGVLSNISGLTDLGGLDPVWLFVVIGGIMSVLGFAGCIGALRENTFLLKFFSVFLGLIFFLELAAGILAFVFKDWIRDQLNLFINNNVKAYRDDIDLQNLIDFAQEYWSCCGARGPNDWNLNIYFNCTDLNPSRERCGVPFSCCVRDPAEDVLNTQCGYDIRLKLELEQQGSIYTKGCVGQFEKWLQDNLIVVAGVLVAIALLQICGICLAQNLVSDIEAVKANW
# Inconclusive results, whose numbers are uncertain, are shown with a selection of clear calls. Potencies beside an inconclusive call are fits to weak or partial responses and may not hold up. Calls of active or inactive are those of the source. How the source made its calls: active means hit-call score of the fitted dose curve at least 0.9, where 1 is the maximum; inconclusive means response in the unintended direction; inactive means score below 0.9.
# Target: rat Gamma-HydroxyButyrate Receptor (GHB), Tspan17 (gene 306771) (UniProt Q4V8E0)
# Assay: NVS_GPCR_rGHB: NovaScreen (NVS) G Protein-Coupled Receptor Assay for rat Gamma-HydroxyButyrate Receptor (GHB)
# Method: NVS_GPCR_rGHB is a biochemical, single-readout assay that uses extracted gene-proteins from Rat forebrain in a tissue-based cell-free assay. Measurements were taken 1 hour after chemical dosing in a 48-well plate.NVS_GPCR_rGHB is one of one assay component(s) measured or calculated from the NVS_GPCR_rGHB assay. It is designed to make measurements of radioligand binding, a form of binding reporter, as detected with scintillation counting signals by Filter-based radiodetection technology.Data from the assay component NVS_GPCR_rGHB was analyzed into 1 assay endpoint. This assay endpoint, NVS_GPCR_rGHB, was analyzed in the positive analysis fitting direction relative to DMSO as the negative control and baseline of activity. Using a type of binding reporter, loss-of-signal activity can be used to understand changes in the binding as they relate to the gene Tspan17. Furthermore, this assay endpoint can be referred to as a primary readout, because the performed assay has only produced 1 assay endpoint. To generalize the intended target to other relatable targets, this assay endpoint is annotated to the gpcr intended target family, where the subfamily is metabotropic glutamate receptor.
# Binding assays used specific radioligands (tritiated, iodinated) with non-radioactive competitive displacement ligands in agonist or antagonist protocols (as indicated) and various reference compounds and inhibitors to titrate specific binding to receptors and transporters. Most enzyme assays (CYPs, kinases, phosphatases, proteases, HDACs) used recombinant protein and specific substrates (fluorescence mostly, some colorimetric and radioactive) and inhibitors, followed by a biochemical separation of substrate and product. All assays for the biochemical HTS were initially run in duplicate at a single concentration (10 uM for CYP450 assays and 25 uM for all others). Assay-chemical combinations meeting a pre-defined threshold (e.g., 30% inhibition and other criteria defined below) were then run in singleton concentration-response format with maximum concentration of 20 uM for CYPs and 50 uM for all others. Each assay was run with positive and negative controls, and concurrent controls on every plate. The follow-up (secondary) screen tested active chemical-pairs in concentration series, as well as a few additional assays not tested in the primary screen, some selected negative inactives, and several cases re-run in the concentration series for confirmatory purposes.
Structure (SMILES),AC50,outcome
Cn1c(=O)cc(Oc2ccc(F)cc2F)c2cnc(NCC(C)(C)O)nc21,active: 0.166 µM,
O=C1CCCCC1,inconclusive: 25 µM,
CC/C(=C(\c1ccccc1)c1ccc(OCCN(C)C)cc1)c1ccccc1,inconclusive: 3.52 µM,
O=C(O)c1cccc(N(Cc2cccnc2)c2ccc(OC(F)F)c(OC(F)F)c2)c1,,inactive
Cc1cccc(Nc2cc(Cl)nc(SCC(=O)O)n2)c1C,active: 19.2 µM,
